From patent US20160159861A1, “APJ Receptor Compounds” (priority 2013, published 2016)
Some results were stated once for a whole list of compounds, not compound by compound. Peptide text beside a SMILES is read from it.

What follows are molecules tested against T1, human APJ receptor (hAPJ) (Homo sapiens, UniProt P35414) (assay: HTRF cAMP assay: inhibition of NKH477-stimulated cAMP in HEK cells stably expressing hAPJ). Conditions: HTRF cAMP Assay, per data of Table 6; read-out: EC50 (hAPJ), inhibition of cAMP production, bound stated.
T1 construct: expressed in transfected cells
T1 sequence (P35414 1-380): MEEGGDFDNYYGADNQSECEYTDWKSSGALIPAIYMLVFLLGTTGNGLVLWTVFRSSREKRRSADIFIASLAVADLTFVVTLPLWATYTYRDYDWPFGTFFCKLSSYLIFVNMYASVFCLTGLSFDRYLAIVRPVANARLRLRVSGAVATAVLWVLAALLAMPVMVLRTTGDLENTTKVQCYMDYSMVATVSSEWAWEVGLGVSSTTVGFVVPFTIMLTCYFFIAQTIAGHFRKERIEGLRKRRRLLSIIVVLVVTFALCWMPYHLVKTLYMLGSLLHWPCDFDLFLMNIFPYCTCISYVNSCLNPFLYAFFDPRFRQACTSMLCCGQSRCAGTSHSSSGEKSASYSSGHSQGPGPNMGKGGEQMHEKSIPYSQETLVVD
Assay type: cell-based
Source text: HTRF cAMP Assay and IP-One Assay (Cisbio)
HTRF (homogeneous time resolved fluorescence) is a technology developed by Cisbio Bioassays based on TR-FRET (time-resolved fluorescence resonance energy transfer). Cisbio Bioassays has developed a wide selection of HTRF-based assays compatible with whole cells, thereby enabling functional assays to run under more physiological conditions. The IP-One assays are competitive immunoassays using cryptate-labeled anti-IP1 monoclonal antibody and d2-labeled IP1. IP1 is a relatively stable downstream metabolite of IP3, and accumulates in cells following Gq receptor activation.
cAMP kits based on a competitive immunoassay using cryptate-labeled anti-cAMP antibody and d2-labeled cAMP were used to assay the effects of APJ compounds of the present invention. […] Cells are treated with 1 nG/mL doxycycline and seeded in all white 96 well plates @40 k/well overnight.
In the case of CCCCCCCCCCCCCCCC(=O)N[C@H](C(=O)N[C@H](C(=O)N[C@@H](Cc1ccccc1)C(=O)N[C@@H](CCCNC(=N)N)C(=O)N[C@@H](CO)C(=O)N[C@@H](CO)C(=O)N[C@@H](CCC(=O)O)C(=O)N[C@H](CCCCN)C(=O)N[C@@H](CCCNC(=N)N)C(=O)N[C@@H](CCCNC(=N)N)C(=O)N[C@@H](CO)C(=O)N[C@@H](C)C(=O)N[C@@H](CC(=O)O)C(=O)N[C@@H](CC(N)=O)C(=O)N[C@@H](Cc1ccccc1)C(=O)N[C@H](C(N)=O)[C@@H](C)CC)C(C)C)[C@@H](C)O [Compound 18] (HELM PEPTIDE1{[CCCCCCCCCCCCCCCC(=O)[*:2]].T.V.F.R.S.S.E.[dK].R.R.S.A.D.N.F.I.[am]}$$$$V2.0), the EC50 is reported as ≤ 50 nM.
CCCCCCCCCCCCCCCC(=O)N[C@@H](CC(=O)O)C(=O)N[C@H](C(=O)N[C@@H](Cc1ccccc1)C(=O)N[C@@H](CC(N)=O)C(=O)N[C@@H](CO)C(=O)N[C@@H](CO)C(=O)N[C@@H](CCC(=O)O)C(=O)N[C@H](CCCCN)C(=O)N[C@@H](CCCNC(=N)N)C(=O)N[C@@H](CCCNC(=N)N)C(=O)N[C@@H](CO)C(=O)N[C@@H](C)C(=O)N[C@@H](CC(=O)O)C(=O)N[C@@H](CC(N)=O)C(=O)N[C@@H](Cc1ccccc1)C(=O)N[C@H](C(N)=O)[C@@H](C)CC)C(C)C [Compound 19] (HELM PEPTIDE1{[CCCCCCCCCCCCCCCC(=O)[*:2]].D.V.F.N.S.S.E.[dK].R.R.S.A.D.N.F.I.[am]}$$$$V2.0) was tested, and the EC50 was ≤ 50 nM.
For CCCCCCCCCCCCCCCC(=O)N[C@@H](CC(=O)O)C(=O)N[C@H](C(=O)N[C@@H](Cc1ccccc1)C(=O)N[C@@H](CCCNC(=N)N)C(=O)N[C@@H](CO)C(=O)N[C@@H](CO)C(=O)N[C@@H](CCC(=O)O)C(=O)N[C@H](CCCCN)C(=O)N[C@@H](CCCNC(=N)N)C(=O)N[C@@H](CCCNC(=N)N)C(=O)N[C@@H](CO)C(=O)N[C@@H](C)C(=O)N[C@@H](CC(=O)O)C(=O)N[C@@H](CC(N)=O)C(=O)N[C@@H](Cc1ccccc1)C(=O)N[C@H](C(N)=O)[C@@H](C)CC)C(C)C [Compound 20] (HELM PEPTIDE1{[CCCCCCCCCCCCCCCC(=O)[*:2]].D.V.F.R.S.S.E.[dK].R.R.S.A.D.N.F.I.[am]}$$$$V2.0), the EC50 was ≤ 50 nM.
For CCCCCCCCCCCCCCCC(=O)N[C@H](C(=O)N[C@H](C(=O)N[C@@H](Cc1ccccc1)C(=O)N[C@@H](CCCNC(=N)N)C(=O)N[C@@H](CO)C(=O)N1CCC[C@H]1C(=O)N[C@@H](CO)C(=O)N[C@@H](CCC(=O)O)C(=O)N[C@H](CCCCN)C(=O)N[C@@H](CCCNC(=N)N)C(=O)N[C@@H](CCCNC(=N)N)C(=O)N1CCC[C@H]1C(=O)N[C@@H](CO)C(=O)N[C@@H](C)C(=O)N[C@@H](CC(=O)O)C(=O)N[C@H](C(=O)N[C@@H](Cc1ccccc1)C(N)=O)[C@@H](C)CC)C(C)C)[C@@H](C)O [Compound 22] (HELM PEPTIDE1{[CCCCCCCCCCCCCCCC(=O)[*:2]].T.V.F.R.S.P.S.E.[dK].R.R.P.S.A.D.I.F.[am]}$$$$V2.0), the EC50 was ≤ 50 nM.
CCCCCCCCCCCCCCCC(=O)N[C@H](C(=O)N[C@H](C(=O)N[C@@H](Cc1ccccc1)C(=O)N[C@@H](CCCNC(=N)N)C(=O)N[C@@H](CO)C(=O)N[C@@H](CO)C(=O)N1CCC[C@H]1C(=O)N[C@@H](CCC(=O)O)C(=O)N[C@H](CCCCN)C(=O)N[C@@H](CCCNC(=N)N)C(=O)N[C@@H](CCCNC(=N)N)C(=O)N[C@@H](CO)C(=O)N1CCC[C@H]1C(=O)N[C@@H](C)C(=O)N[C@@H](CC(=O)O)C(=O)N[C@H](C(=O)N[C@@H](Cc1ccccc1)C(N)=O)[C@@H](C)CC)C(C)C)[C@@H](C)O [Compound 23] (HELM PEPTIDE1{[CCCCCCCCCCCCCCCC(=O)[*:2]].T.V.F.R.S.S.P.E.[dK].R.R.S.P.A.D.I.F.[am]}$$$$V2.0) was tested, and the EC50 was ≤ 50 nM.
For CCCCCCCCCCCCCCCC(=O)N[C@H](C(=O)N[C@H](C(=O)N[C@@H](Cc1ccccc1)C(=O)N[C@@H](CCCNC(=N)N)C(=O)N[C@@H](CO)C(=O)N[C@@H](CO)C(=O)N[C@@H](CCC(=O)O)C(=O)N[C@H](CCCCN)C(=O)N[C@@H](CCCNC(=N)N)C(=O)N[C@@H](CCCNC(=N)N)C(=O)N1CCC[C@H]1C(=O)N[C@@H](CO)C(=O)N[C@@H](C)C(=O)N[C@@H](CC(=O)O)C(=O)N[C@H](C(=O)N[C@@H](Cc1ccccc1)C(=O)N1CCC[C@H]1C(N)=O)[C@@H](C)CC)C(C)C)[C@@H](C)O [Compound 24] (HELM PEPTIDE1{[CCCCCCCCCCCCCCCC(=O)[*:2]].T.V.F.R.S.S.E.[dK].R.R.P.S.A.D.I.F.P.[am]}$$$$V2.0), the EC50 was ≤ 50 nM.
With CCCCCCCCCCCCCCCC(=O)N[C@H](C(=O)N[C@H](C(=O)N[C@@H](Cc1ccccc1)C(=O)N[C@@H](CCCNC(=N)N)C(=O)N[C@@H](CO)C(=O)N[C@@H](CO)C(=O)N1CCC[C@H]1C(=O)N[C@@H](CCC(=O)O)C(=O)N[C@H](CCCCN)C(=O)N[C@@H](CCCNC(=N)N)C(=O)N[C@@H](CCCNC(=N)N)C(=O)N[C@@H](CO)C(=O)N[C@@H](C)C(=O)N[C@@H](CC(=O)O)C(=O)N[C@H](C(=O)N[C@@H](Cc1ccccc1)C(=O)N1CCC[C@H]1C(N)=O)[C@@H](C)CC)C(C)C)[C@@H](C)O [Compound 26] (HELM PEPTIDE1{[CCCCCCCCCCCCCCCC(=O)[*:2]].T.V.F.R.S.S.P.E.[dK].R.R.S.A.D.I.F.P.[am]}$$$$V2.0) the EC50 was ≤ 50 nM.
CCCCCCCCCCCCCCCC(=O)N[C@H](C(=O)N[C@H](C(=O)N[C@@H](Cc1ccccc1)C(=O)N[C@@H](CCCNC(=N)N)C(=O)N[C@@H](CO)C(=O)N[C@@H](CO)C(=O)N[C@@H](CCC(=O)O)C(=O)N1CCC[C@H]1C(=O)N[C@H](CCCCN)C(=O)N[C@@H](CCCNC(=N)N)C(=O)N[C@@H](CCCNC(=N)N)C(=O)N[C@@H](CO)C(=O)N[C@@H](C)C(=O)N[C@@H](CC(=O)O)C(=O)N[C@H](C(=O)N[C@@H](Cc1ccccc1)C(=O)N1CCC[C@H]1C(N)=O)[C@@H](C)CC)C(C)C)[C@@H](C)O [Compound 28] (HELM PEPTIDE1{[CCCCCCCCCCCCCCCC(=O)[*:2]].T.V.F.R.S.S.E.P.[dK].R.R.S.A.D.I.F.P.[am]}$$$$V2.0) was tested, and the EC50 was ≤ 50 nM.
CCCCCCCCCCCCCCCC(=O)N1CCC[C@@H]1C(=O)N[C@H](C(=O)N[C@H](C(=O)N[C@@H](Cc1ccccc1)C(=O)N[C@@H](CCCNC(=N)N)C(=O)N[C@@H](CO)C(=O)N1CCC[C@@H]1C(=O)N[C@@H](CO)C(=O)N[C@@H](CCC(=O)O)C(=O)N[C@H](CCCCN)C(=O)N[C@@H](CCCNC(=N)N)C(=O)N[C@@H](CCCNC(=N)N)C(=O)N[C@@H](CO)C(=O)N[C@@H](C)C(=O)N[C@@H](CC(=O)O)C(=O)N[C@H](C(=O)N[C@@H](Cc1ccccc1)C(N)=O)[C@@H](C)CC)C(C)C)[C@@H](C)O [Compound 29, pTVFRSpSEkRRSADIF] (HELM PEPTIDE1{[CCCCCCCCCCCCCCCC(=O)[*:2]].[dP].T.V.F.R.S.[dP].S.E.[dK].R.R.S.A.D.I.F.[am]}$$$$V2.0) was tested, and the EC50 was ≤ 50 nM.
In the case of CCCCCCCCCCCCCCCC(=O)N1CCC[C@H]1C(=O)N[C@H](CCCCN)C(=O)N[C@@H](CCCNC(=N)N)C(=O)N[C@@H](CCCNC(=N)N)C(=O)N[C@@H](CO)C(=O)N[C@@H](C)C(=O)N[C@@H](CC(=O)O)C(=O)N[C@H](C(=O)N[C@@H](Cc1ccccc1)C(=O)N[C@H](C(=O)N1CCC[C@H]1C(N)=O)[C@@H](C)CC)[C@@H](C)CC [Compound 30] (HELM PEPTIDE1{[CCCCCCCCCCCCCCCC(=O)[*:2]].P.[dK].R.R.S.A.D.I.F.I.P.[am]}$$$$V2.0), the EC50 is reported as ≤ 50 nM.
With CCCCCCCCCCCCCCCC(=O)N[C@H](C(=O)N[C@H](C(=O)N[C@@H](CC(=O)O)C(=O)N[C@@H](CCCNC(=N)N)C(=O)N[C@@H](CO)C(=O)N[C@@H](CO)C(=O)N[C@@H](CCC(=O)O)C(=O)N[C@H](CCCCN)C(=O)N[C@@H](CCCNC(=N)N)C(=O)N[C@@H](CCCNC(=N)N)C(=O)N[C@@H](CO)C(=O)N[C@@H](C)C(=O)N[C@@H](CC(=O)O)C(=O)N[C@@H](Cc1ccc(F)cc1)C(=O)N[C@@H](Cc1ccccc1)C(=O)N[C@H](C(N)=O)[C@@H](C)CC)C(C)C)[C@@H](C)O [Compound 33, TVDRSSEkRRSAD(p-fluoro-Phe)FI] (HELM PEPTIDE1{[CCCCCCCCCCCCCCCC(=O)[*:2]].T.V.D.R.S.S.E.[dK].R.R.S.A.D.[O=C([C@H](Cc1ccc(F)cc1)N[*:1])[*:2]].F.I.[am]}$$$$V2.0) the EC50 was ≤ 50 nM.
In the case of CCCCCCCCCCCCCCCC(=O)N[C@H](C(=O)N[C@H](C(=O)N[C@@H](CC(=O)O)C(=O)N[C@@H](CCCNC(=N)N)C(=O)N[C@@H](CO)C(=O)N[C@@H](CO)C(=O)N[C@@H](CCC(=O)O)C(=O)N[C@H](CCCCN)C(=O)N[C@@H](CCCNC(=N)N)C(=O)N[C@@H](CCCNC(=N)N)C(=O)N[C@@H](CO)C(=O)N[C@@H](C)C(=O)N[C@@H](CC(=O)O)C(=O)N[C@@H](Cc1ccc(CN)cc1)C(=O)N[C@@H](Cc1ccccc1)C(=O)N[C@H](C(N)=O)[C@@H](C)CC)C(C)C)[C@@H](C)O [Compound 34, TVDRSSEkRRSAD(p-CH2NH2-Phe)FI] (HELM PEPTIDE1{[CCCCCCCCCCCCCCCC(=O)[*:2]].T.V.D.R.S.S.E.[dK].R.R.S.A.D.[NCc1ccc(C[C@H](N[*:1])C(=O)[*:2])cc1].F.I.[am]}$$$$V2.0), the EC50 is reported as ≤ 50 nM.
